Measured values: paper PMC4694978
No constants are given. Whether binding was seen depends on the method and setting. In cells and extracts the contact can be indirect. Some results given as binding are weak or reduced against the parent protein; the word gives no strength.

Protein sequences, listed by entry. Tags and fused reporters are not part of them.
UniProt O75679: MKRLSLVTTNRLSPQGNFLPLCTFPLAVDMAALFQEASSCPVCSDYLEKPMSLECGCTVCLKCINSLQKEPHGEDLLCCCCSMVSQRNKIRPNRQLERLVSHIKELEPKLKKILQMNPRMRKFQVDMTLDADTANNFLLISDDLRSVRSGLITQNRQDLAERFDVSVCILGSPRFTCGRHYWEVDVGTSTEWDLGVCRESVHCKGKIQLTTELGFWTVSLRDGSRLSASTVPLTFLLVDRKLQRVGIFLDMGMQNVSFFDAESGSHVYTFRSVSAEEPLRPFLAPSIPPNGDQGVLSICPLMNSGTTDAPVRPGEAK
UniProt Q92793: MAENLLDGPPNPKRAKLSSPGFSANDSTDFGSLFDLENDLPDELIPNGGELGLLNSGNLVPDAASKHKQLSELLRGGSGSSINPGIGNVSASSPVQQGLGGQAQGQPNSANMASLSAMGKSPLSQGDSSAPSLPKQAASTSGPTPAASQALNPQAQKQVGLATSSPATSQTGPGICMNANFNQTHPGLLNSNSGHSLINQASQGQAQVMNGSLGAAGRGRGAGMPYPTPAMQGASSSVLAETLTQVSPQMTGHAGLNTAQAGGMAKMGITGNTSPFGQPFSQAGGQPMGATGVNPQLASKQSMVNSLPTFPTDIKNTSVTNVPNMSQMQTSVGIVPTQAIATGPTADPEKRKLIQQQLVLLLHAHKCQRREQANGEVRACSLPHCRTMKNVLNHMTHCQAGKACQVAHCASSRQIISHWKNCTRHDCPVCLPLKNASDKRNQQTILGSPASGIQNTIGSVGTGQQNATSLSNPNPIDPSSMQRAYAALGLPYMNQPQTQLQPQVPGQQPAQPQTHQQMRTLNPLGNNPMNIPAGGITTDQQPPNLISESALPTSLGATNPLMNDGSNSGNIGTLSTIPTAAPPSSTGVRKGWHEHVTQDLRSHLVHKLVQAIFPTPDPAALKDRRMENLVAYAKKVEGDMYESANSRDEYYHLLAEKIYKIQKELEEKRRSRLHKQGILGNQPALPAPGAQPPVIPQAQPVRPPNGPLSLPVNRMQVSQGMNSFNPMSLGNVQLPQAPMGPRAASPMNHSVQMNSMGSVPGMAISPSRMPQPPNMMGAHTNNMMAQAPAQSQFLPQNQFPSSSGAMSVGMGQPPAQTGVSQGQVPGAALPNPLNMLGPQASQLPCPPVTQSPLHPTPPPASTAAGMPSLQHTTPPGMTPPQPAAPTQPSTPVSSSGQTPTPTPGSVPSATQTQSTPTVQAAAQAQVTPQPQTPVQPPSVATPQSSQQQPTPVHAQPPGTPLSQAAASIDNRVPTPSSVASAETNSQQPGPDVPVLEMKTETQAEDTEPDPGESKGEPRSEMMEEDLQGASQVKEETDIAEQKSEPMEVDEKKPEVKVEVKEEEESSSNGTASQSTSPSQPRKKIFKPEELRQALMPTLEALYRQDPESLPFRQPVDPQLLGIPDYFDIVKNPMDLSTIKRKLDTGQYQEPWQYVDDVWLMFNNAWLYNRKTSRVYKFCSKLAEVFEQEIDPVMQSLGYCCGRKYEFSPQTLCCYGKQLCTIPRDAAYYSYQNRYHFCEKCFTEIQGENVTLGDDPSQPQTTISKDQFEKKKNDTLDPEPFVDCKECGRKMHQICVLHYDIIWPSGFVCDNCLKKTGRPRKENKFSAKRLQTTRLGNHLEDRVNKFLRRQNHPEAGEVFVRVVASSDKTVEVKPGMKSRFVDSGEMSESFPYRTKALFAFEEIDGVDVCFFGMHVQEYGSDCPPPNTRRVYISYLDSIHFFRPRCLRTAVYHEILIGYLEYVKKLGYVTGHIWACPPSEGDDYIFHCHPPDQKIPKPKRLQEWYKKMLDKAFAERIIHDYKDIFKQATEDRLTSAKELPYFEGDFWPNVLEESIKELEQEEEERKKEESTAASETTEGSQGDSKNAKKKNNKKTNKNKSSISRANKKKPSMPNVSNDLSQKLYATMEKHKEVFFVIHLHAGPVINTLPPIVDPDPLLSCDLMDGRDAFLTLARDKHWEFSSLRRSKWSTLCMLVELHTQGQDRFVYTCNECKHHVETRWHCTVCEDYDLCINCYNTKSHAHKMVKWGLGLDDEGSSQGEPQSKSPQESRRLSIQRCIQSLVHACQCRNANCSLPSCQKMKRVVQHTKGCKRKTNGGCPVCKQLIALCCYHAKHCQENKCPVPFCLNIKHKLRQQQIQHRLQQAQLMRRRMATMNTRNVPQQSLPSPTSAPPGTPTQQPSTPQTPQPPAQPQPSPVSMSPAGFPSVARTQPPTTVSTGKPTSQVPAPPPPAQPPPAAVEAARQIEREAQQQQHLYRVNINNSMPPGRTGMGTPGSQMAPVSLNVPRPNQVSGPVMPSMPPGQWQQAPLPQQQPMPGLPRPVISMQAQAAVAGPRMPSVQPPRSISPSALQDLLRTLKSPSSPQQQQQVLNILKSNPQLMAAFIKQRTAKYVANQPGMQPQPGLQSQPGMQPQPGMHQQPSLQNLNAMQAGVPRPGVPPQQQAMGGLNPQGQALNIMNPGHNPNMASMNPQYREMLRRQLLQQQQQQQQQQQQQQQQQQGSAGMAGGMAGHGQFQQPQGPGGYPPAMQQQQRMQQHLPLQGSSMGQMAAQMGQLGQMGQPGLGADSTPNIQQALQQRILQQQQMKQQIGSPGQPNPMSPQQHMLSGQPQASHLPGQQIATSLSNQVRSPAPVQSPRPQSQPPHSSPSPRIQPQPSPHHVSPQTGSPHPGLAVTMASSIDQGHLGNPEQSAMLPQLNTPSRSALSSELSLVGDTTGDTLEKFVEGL

Biological target: RFPL3 (human (endogenous in H1299, H460, H322, A549)) (UniProt O75679)
Assay: co-IP; nuclear extracts of lung cancer cell lines incubated with rabbit polyclonal anti-RFPL3 antibody or non-immune rabbit IgG overnight at 4°C, protein-A/G agarose beads, washed with ice-cold PBS; immunoblot for CBP

binding: binds
Substance: CREB binding protein (CBP) (from UniProt Q92793 1-2442)
